Reference: PMC12736535, “Generation and Characterization of Novel Contilisant+Tubastatin a Multitarget Small Molecules Against Glioblastoma” (Pharmaceutics, 2025)

Test system: GNS166 cells
Test: Proteomics (label-free nLC MS/MS)
Type: cell-based, human
Conditions: 5 µM, GNS166, vs controls

| SMILES | differentially upregulated proteins (proteomics) | downregulated proteins (proteomics) |
| --- | --- | --- |
| CCCNNC(=O)c1ccc(S(=O)(=O)n2ccc3cc(OCCCN4CCCCC4)ccc32)cc1 [FRB44] | 1292 | 1235 |
| C#CCN1CCN(CCCOc2ccc3c(ccn3S(=O)(=O)c3ccc(C(=O)NNCCC)cc3)c2)CC1 [FRB56] | 949 | 1132 |
